Earlier results as cited in US20100004342A1, “LFA-1 Inhibitors and Use Thereof” (priority 2003, published 2010).
For part of these data: For at least one compound, name, drawing or mass did not settle the structure. Some entries share one result that the patent states for a list of compounds.

What was measured:
[1] = test system: arteriosclerosis of coronary artery; details: human patient after cardiac transplantation; cited from earlier work
transplanted heart = details: human patients of cardiac transplantation; cited from earlier work
[2] = absorbed in original form from foods; cited from earlier work

Structure (SMILES) | arteriosclerosis of coronary artery [1] | graft survival rate of transplanted heart (transplanted heart) | share of orally administered amount that moves into various tissues and organs in the body [2] [%]
CC[C@H](C)C(=O)O[C@H]1C[C@H](O)C=C2C=C[C@H](C)[C@H](CC[C@@H](O)C[C@@H](O)CC(=O)O)[C@H]21 [pravastatin] | inhibits arteriosclerosis of coronary artery | increases graft survival rate | 
NCCCCNCCCN [spermidine, N-aminobutyl-1,3-diaminopropane] |  |  | ≥ 95
